Some of these results come from one statement about several compounds together.
Experiment: Solubility (turbidity) of 2% solutions at various pH
Type: physicochemical
Settings: 2% solution in RO water, turbidity meter

Compound | pH above which the solution remained clear
C(CCCc1nnn[nH]1)CCc1nnn[nH]1 [HDTZ, 1,6-di(1H-tetrazol-5-yl)hexane] | > 6.5
C(CCCc1nnn[nH]1)CCCc1nnn[nH]1 [HeDTZ, 1,7-di(1H-tetrazol-5-yl)heptane] | > 6.5
